The other results are listed elsewhere or left out.
Columns and labels:
Test in all cases: log2 fold change, soluble protein after heating vs DMSO (PISA); higher = thermal stabilisation; K562 cells, 10 uM, 30 min; active = over 0.2 and 3.5 SD of the protein, either way, in both replicates (recomputed)
[1] = compound: CS(=O)(=O)c1ccc(-c2cnc(N)c(C(=O)Nc3ccccc3)n2)cc1
Outline: (§1)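 Aliquots of K562 cells (2×10^6 cells/mL) treated with 10 μM compound for 30 min were heated for 3 min over 48°C-58°C. After pooling and extraction in PBS with 0.5% NP-40 at 4°C, soluble protein from a 21,000xg, 90 min spin was quantified by TMTpro 16plex LC-MS/MS with channel sums equalised. Thermal stability is expressed against control samples, from duplicates, as a log2 fold change.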

Chains of the proteins cited; added tags and fusions are not shown. Lines headed by an entry give the natural chain unless they say otherwise; changes in a name come on top.
UniProt P46940, whole entry, looked up: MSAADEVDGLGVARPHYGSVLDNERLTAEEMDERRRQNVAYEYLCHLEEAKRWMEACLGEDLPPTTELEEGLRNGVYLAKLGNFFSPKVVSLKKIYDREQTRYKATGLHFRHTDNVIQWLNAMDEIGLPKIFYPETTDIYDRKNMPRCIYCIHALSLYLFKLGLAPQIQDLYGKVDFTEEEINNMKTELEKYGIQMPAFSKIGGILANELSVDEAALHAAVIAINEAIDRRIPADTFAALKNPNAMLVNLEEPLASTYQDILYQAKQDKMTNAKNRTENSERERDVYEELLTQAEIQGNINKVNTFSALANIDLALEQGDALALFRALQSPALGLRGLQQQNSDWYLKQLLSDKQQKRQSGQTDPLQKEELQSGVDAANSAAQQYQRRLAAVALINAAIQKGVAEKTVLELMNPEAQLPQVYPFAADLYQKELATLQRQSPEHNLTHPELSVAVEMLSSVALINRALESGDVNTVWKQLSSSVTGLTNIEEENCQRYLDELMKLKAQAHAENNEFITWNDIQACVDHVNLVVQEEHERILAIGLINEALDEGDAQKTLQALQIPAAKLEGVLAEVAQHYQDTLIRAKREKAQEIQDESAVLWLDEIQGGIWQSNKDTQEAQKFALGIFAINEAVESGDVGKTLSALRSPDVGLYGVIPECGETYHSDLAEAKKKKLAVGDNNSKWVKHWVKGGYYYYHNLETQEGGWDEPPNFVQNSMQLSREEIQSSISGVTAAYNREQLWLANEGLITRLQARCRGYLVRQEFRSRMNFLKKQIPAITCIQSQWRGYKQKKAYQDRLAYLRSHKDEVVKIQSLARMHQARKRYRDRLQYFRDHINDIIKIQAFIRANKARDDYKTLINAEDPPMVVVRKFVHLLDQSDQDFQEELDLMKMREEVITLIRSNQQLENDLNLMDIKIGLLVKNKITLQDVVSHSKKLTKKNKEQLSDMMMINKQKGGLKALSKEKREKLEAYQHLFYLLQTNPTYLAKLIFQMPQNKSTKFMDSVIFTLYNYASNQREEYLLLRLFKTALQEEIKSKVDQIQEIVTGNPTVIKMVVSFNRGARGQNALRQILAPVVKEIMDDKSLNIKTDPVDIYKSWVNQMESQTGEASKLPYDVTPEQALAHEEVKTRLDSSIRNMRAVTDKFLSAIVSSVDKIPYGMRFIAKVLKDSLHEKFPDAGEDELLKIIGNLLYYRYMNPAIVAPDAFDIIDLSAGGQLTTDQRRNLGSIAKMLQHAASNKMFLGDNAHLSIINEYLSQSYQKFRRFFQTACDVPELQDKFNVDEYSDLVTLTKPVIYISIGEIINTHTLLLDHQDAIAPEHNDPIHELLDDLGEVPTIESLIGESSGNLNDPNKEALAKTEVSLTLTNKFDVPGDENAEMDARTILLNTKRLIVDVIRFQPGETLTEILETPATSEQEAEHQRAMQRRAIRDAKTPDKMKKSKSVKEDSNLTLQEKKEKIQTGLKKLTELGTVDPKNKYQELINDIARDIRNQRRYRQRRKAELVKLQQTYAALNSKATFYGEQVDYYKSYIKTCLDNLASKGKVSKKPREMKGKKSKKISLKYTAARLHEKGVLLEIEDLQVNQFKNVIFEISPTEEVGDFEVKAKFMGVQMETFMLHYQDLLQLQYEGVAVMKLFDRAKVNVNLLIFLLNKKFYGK
UniProt O00410: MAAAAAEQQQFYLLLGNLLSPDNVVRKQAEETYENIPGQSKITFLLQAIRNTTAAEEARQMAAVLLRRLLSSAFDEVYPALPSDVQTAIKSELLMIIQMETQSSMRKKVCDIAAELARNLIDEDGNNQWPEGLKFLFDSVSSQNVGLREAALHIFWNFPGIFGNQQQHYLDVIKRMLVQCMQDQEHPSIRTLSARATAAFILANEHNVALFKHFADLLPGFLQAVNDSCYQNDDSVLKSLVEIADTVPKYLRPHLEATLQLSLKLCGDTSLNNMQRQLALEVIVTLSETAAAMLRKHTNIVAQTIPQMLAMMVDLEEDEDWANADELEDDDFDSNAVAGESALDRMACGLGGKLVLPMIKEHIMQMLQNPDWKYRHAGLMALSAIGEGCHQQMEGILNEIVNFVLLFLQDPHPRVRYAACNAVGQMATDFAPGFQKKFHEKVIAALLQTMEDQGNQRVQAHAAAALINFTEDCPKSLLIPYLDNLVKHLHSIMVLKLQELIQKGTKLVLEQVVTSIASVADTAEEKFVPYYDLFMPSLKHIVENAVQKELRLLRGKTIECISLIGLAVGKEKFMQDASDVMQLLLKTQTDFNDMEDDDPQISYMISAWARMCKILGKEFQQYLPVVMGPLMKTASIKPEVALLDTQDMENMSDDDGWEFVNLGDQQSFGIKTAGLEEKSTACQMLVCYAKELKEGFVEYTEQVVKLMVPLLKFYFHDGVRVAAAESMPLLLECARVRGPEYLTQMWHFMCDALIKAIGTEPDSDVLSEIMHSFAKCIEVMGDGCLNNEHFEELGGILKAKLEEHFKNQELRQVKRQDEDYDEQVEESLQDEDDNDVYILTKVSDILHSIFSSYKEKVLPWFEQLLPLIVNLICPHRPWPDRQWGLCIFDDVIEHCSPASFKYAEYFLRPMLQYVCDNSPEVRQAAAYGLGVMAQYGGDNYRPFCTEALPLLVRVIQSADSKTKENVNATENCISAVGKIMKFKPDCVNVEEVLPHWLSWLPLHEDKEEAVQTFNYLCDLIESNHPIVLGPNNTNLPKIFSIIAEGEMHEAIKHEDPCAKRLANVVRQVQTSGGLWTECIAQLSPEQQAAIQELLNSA
UniProt P05161, whole entry, looked up: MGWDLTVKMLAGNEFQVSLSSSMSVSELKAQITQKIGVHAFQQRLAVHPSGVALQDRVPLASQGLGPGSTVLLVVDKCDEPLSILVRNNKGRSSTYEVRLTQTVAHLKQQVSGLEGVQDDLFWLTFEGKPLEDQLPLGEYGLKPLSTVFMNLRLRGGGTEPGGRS
UniProt Q13576: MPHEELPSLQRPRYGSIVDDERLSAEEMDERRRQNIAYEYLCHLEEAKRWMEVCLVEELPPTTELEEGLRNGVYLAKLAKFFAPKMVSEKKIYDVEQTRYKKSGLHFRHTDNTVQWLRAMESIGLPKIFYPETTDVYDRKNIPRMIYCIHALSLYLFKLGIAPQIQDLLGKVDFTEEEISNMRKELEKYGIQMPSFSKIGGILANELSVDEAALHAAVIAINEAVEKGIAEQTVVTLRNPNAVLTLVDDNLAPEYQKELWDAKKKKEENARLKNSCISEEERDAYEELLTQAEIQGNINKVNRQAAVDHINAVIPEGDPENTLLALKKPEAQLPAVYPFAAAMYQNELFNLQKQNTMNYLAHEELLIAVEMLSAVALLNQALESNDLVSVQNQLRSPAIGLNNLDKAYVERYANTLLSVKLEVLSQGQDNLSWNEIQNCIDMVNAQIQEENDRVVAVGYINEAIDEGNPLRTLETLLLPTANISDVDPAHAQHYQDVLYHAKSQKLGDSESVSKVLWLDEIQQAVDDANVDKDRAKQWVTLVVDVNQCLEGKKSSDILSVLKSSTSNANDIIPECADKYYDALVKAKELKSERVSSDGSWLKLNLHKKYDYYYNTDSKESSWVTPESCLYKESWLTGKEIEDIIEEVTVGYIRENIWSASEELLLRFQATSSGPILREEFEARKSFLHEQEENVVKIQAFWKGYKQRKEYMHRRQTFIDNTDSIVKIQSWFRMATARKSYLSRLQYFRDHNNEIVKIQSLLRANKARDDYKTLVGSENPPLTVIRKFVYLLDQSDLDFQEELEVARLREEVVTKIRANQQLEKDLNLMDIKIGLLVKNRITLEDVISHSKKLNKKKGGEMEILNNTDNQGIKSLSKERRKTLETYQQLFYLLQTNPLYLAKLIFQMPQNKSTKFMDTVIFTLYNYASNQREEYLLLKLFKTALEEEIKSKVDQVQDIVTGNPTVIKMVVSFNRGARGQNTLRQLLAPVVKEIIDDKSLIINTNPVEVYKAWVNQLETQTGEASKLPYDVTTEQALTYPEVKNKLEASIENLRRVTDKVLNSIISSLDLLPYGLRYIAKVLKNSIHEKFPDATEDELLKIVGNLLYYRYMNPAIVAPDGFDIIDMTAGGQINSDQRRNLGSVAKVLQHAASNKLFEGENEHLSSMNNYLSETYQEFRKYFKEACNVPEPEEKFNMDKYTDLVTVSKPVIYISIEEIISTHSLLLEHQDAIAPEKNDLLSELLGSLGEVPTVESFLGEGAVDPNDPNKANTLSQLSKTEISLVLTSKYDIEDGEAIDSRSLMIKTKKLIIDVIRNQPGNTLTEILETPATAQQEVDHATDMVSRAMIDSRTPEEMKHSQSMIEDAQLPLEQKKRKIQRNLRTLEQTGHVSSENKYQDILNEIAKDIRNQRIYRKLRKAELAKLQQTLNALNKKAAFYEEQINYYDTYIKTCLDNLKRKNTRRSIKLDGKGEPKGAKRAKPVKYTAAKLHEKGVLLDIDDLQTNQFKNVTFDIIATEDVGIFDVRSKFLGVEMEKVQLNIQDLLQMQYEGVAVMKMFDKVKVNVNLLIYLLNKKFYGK
UniProt P29218: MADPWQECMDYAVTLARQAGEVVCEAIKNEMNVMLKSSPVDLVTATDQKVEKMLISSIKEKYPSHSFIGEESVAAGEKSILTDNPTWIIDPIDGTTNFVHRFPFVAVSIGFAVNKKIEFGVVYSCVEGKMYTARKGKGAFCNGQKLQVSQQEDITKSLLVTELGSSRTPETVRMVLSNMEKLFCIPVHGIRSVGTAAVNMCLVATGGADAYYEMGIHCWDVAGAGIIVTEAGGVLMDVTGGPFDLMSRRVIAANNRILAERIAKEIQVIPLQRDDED
UniProt O43736: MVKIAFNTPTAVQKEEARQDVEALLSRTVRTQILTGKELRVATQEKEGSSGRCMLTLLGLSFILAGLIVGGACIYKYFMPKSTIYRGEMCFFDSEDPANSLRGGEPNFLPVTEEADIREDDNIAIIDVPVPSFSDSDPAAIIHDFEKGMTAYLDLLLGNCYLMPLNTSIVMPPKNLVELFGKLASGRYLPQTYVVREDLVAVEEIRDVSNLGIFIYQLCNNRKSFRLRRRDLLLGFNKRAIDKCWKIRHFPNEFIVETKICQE
UniProt Q9NX62: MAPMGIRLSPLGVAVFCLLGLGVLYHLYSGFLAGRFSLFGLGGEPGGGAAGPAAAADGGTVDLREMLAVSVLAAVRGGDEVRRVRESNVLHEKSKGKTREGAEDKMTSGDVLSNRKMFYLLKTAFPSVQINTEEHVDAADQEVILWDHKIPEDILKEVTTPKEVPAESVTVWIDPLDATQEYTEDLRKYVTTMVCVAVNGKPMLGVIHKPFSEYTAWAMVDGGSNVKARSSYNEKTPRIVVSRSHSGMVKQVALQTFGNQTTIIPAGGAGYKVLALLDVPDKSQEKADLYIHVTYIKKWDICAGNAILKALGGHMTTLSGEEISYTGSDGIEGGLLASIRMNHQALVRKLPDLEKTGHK
UniProt P06756, whole entry, looked up: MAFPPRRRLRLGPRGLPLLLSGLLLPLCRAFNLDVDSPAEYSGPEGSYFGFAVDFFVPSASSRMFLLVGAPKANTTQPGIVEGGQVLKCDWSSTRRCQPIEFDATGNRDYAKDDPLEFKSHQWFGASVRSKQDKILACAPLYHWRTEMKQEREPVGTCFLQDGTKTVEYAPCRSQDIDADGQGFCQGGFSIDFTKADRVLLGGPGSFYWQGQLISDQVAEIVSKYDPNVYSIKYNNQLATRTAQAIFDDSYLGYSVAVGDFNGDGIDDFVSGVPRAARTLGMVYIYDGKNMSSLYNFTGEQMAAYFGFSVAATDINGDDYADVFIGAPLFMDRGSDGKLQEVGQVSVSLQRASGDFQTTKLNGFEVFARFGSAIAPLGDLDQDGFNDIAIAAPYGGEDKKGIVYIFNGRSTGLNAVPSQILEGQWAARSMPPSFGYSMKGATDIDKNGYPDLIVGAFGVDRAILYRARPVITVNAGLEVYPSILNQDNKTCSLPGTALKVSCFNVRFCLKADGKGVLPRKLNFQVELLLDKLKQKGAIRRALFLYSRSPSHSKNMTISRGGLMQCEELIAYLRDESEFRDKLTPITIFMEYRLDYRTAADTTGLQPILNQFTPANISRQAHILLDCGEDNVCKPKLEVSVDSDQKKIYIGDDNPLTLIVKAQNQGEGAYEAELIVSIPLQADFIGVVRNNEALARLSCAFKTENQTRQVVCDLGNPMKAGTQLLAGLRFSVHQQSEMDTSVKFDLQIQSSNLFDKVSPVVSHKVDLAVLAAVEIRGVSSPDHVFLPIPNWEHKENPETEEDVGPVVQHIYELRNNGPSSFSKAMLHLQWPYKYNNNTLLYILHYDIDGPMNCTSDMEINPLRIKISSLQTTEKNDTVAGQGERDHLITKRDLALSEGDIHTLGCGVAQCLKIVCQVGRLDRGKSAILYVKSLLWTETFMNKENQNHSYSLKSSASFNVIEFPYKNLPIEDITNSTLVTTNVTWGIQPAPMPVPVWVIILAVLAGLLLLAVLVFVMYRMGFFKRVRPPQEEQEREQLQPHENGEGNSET

[2] = compound: C[C@@H](Oc1cc(-c2cnn(C3CCNCC3)c2)cnc1N)c1c(Cl)ccc(F)c1Cl [crizotinib]
Outline: as §1

[3] = compound: C[C@@H]1COCCN1C2=NC(=NC(=C2)C3(CC3)S(=O)(=O)C)C4=C5C=CNC5=CC=C4
Outline: as §1

[4] = compound: C[C@H](C1=CC=C(C=C1)C(=O)NC2=C3C=CNC3=NC=C2)N
Outline: as §1

[5] = compound: C[C@H](Nc1ncnc2nc[nH]c12)c1cc2cccc(Cl)c2c(=O)n1-c1ccccc1 [duvelisib]
Outline: as §1

[6] = compound: Cc1cc(Nc2cc(CN3CCOCC3)c3nc(C)c(Cc4ccc(Cl)cc4F)n3n2)n[nH]1 [gandotinib]
Outline: as §1

[7] = compound: Cc1cc(Nc2cc(N3CCN(C)CC3)nc(Sc3ccc(NC(=O)C4CC4)cc3)n2)n[nH]1 [tozasertib]
Outline: as §1

[8] = compound: Cc1cc(SCc2sc(-c3ccc(C(F)(F)F)cc3)nc2C)ccc1OCC(=O)O
Outline: as §1

[9] = compound: Cc1ccc(-n2nc(C(C)(C)C)cc2NC(=O)Nc2ccc(OCCN3CCOCC3)c3ccccc23)cc1 [doramapimod]
Outline: as §1

[10] = compound: Cc1ccc(C(=O)N(CCCN)[C@@H](c2nc3cc(Cl)ccc3c(=O)n2Cc2ccccc2)C(C)C)cc1 [ispinesib]
Outline: as §1

[11] = compound: Cc1ccc(NC(=O)c2ccc(CN3CC[C@H](N(C)C)C3)c(C(F)(F)F)c2)cc1Nc1nccc(-c2cncnc2)n1 [bafetinib]
Outline: as §1

[12] = compound: Cc1cccc(CC(=O)N2CCc3c2ccc(-c2cn(C)c4ncnc(N)c24)c3F)n1
Outline: as §1

[13] = compound: Cc1cn(-c2cc(NC(=O)c3ccc(C)c(Nc4nccc(-c5cccnc5)n4)c3)cc(C(F)(F)F)c2)cn1 [nilotinib]
Outline: as §1

[14] = compound: Cc1nc(Nc2n[nH]c3c2CN(C(=O)N[C@H](CN(C)C)c2ccccc2)C3(C)C)c2sccc2n1
Outline: as §1

[15] = compound: Cc1nc(Nc2ncc(C(=O)Nc3c(C)cccc3Cl)s2)cc(N2CCN(CCO)CC2)n1 [dasatinib]
Outline: as §1

[16] = compound: Cc1ncc(-c2ccnc(Nc3ccc(S(C)(=O)=O)cc3)n2)n1C(C)C
Outline: as §1

[17] = compound: Cn1cc(-c2ccc3c(c2)CCN3C(=O)Cc2cccc(C(F)(F)F)c2)c2c(N)ncnc21
Outline: as §1

[18] = compound: Cn1cc(-c2ccc3nnc(C(F)(F)c4ccc5ncccc5c4)n3n2)cn1
Outline: as §1

[19] = compound: Cn1cncc1[C@@](N)(c1ccc(Cl)cc1)c1ccc2c(c1)c(-c1cccc(Cl)c1)cc(=O)n2C [tipifarnib]
Outline: as §1

[20] = compound: FC(F)(F)c1ccc(/C=C/c2nc(COc3ccc(CCCCn4ccnn4)cc3)co2)cc1 [mubritinib]
Outline: as §1

Measured: log2 fold change

INTS3 (UniProt Q68E01)
inactive: [1] -0.004 | [2] -0.036 | [3] -0.115 | [4] -0.039 | [5] 0.067 | [6] -0.136 | [7] -0.027 | [8] 0.035 | [9] 0.004 | [10] -0.016 | [11] 0.059 | [12] 0.08 | [13] -0.029 | [14] -0.034 | [15] -0.045 | [16] -0.069 | [17] -0.026 | [18] -0.015 | [19] 0.002 | [20] 0.006

ITGB1 (UniProt P05556)
inactive: [1] 0.011 | [2] 0.091 | [3] 0.031 | [4] -0.038 | [5] 0.009 | [6] 0.019 | [7] -0.004 | [8] -0.034 | [9] -0.016 | [10] 0.07 | [11] -0.037 | [12] -0.044 | [13] 0.026 | [14] -0.004 | [15] 0.025 | [16] -0.011 | [17] 0.011 | [18] 0.023 | [19] 0.043 | [20] 0.002

INTS9 (UniProt Q9NV88)
inactive: [1] 0.026 | [2] 0.017 | [3] 0.061 | [4] -0.053 | [5] 0.041 | [6] 0.007 | [7] 0.002 | [8] 0.015 | [9] 0 | [10] 0.066 | [11] -0.033 | [12] 0.028 | [13] -0.005 | [14] 0.002 | [15] -0.074 | [16] -0.03 | [17] 0.022 | [18] -0.005 | [19] 0.033 | [20] 0.075

INPP4A (UniProt Q96PE3)
inactive: [1] 0.016 | [2] 0.074 | [3] 0.038 | [4] -0.02 | [5] 0.093 | [6] -0.155 | [7] 0.01 | [8] -0.021 | [9] 0 | [10] 0.139 | [11] -0.065 | [12] -0.138 | [13] 0.06 | [14] -0.018 | [15] 0.01 | [16] 0.038 | [17] 0.072 | [18] -0.034 | [19] 0.02 | [20] 0.032

IPO4 isoform 2 (UniProt Q8TEX9)
inactive: [1] -0.021 | [2] -0.17 | [3] -0.01 | [4] 0.117 | [5] -0.056 | [6] -0.024 | [7] 0.097 | [8] 0.057 | [9] 0.042 | [10] -0.029 | [11] 0.065 | [12] 0.053 | [13] -0.081 | [14] -0.116 | [15] -0.113 | [16] 0.004 | [17] -0.16 | [18] -0.073 | [19] -0.089 | [20] -0.072

IQGAP1 (UniProt P46940)
inactive: [1] 0.001 | [2] -0.098 | [3] 0.012 | [4] -0.064 | [5] 0.005 | [6] -0.131 | [7] -0.058 | [8] 0.082 | [9] -0.034 | [10] 0 | [11] -0.028 | [12] 0.057 | [13] -0.084 | [14] -0.046 | [15] -0.135 | [16] -0.054 | [17] 0.052 | [18] 0.012 | [19] -0.026 | [20] 0.082

IPO5 isoform 3 (UniProt O00410)
inactive: [1] -0.022 | [2] -0.199 | [3] 0.051 | [4] -0.084 | [5] -0.017 | [6] -0.194 | [7] -0.008 | [8] 0.029 | [9] -0.008 | [10] -0.034 | [11] 0.03 | [12] 0.082 | [13] 0.003 | [14] -0.057 | [15] -0.082 | [16] -0.078 | [17] 0.036 | [18] -0.017 | [19] -0.106 | [20] 0.02

Taken from the entries so far (2 entries):
INTS9 (UniProt Q9NV88)
inactive: [1] 0.026 | [2] 0.017 | [3] 0.061 | [4] -0.053 | [5] 0.041 | [6] 0.007 | [7] 0.002 | [8] 0.015 | [9] 0 | [10] 0.066 | [11] -0.033 | [12] 0.028 | [13] -0.005 | [14] 0.002 | [15] -0.074 | [16] -0.03 | [17] 0.022 | [18] -0.005 | [19] 0.033 | [20] 0.075

INPP4A (UniProt Q96PE3)
inactive: [1] 0.016 | [2] 0.074 | [3] 0.038 | [4] -0.02 | [5] 0.093 | [6] -0.155 | [7] 0.01 | [8] -0.021 | [9] 0 | [10] 0.139 | [11] -0.065 | [12] -0.138 | [13] 0.06 | [14] -0.018 | [15] 0.01 | [16] 0.038 | [17] 0.072 | [18] -0.034 | [19] 0.02 | [20] 0.032

(continued)

IQSEC1 (UniProt Q6DN90)
inactive: [1] -0.007

ISG15 (UniProt P05161)
inactive: [1] 0.061 | [2] -0.053 | [3] 0.061 | [4] -0.047 | [5] 0.088 | [6] -0.068 | [7] 0.081 | [8] 0.127 | [9] -0.239 | [10] 0.048 | [11] 0.005 | [12] 0.041 | [13] -0.031 | [14] -0.109 | [15] -0.071 | [16] 0.013 | [17] -0.018 | [18] 0.07 | [19] 0.018 | [20] 0.059

IQGAP2 (UniProt Q13576)
inactive: [1] 0.048 | [2] -0.179 | [3] 0.02 | [4] 0.086 | [5] -0.076 | [6] -0.135 | [7] -0.016 | [8] 0.103 | [9] 0.004 | [10] -0.221 | [11] 0.054 | [12] 0.074 | [13] -0.063 | [14] -0.152 | [15] -0.356 | [16] 0.017 | [17] -0.015 | [18] 0.05 | [19] -0.167 | [20] 0.034

IMPA1 isoform 3 (UniProt P29218)
inactive: [1] 0.017 | [2] 0.051 | [3] 0.026 | [4] -0.061 | [5] 0.031 | [6] -0.012 | [7] -0.027 | [8] -0.051 | [9] -0.04 | [10] 0.016 | [11] -0.013 | [12] 0 | [13] -0.007 | [14] 0.022 | [15] 0.066 | [16] -0.003 | [17] 0 | [18] 0.018 | [19] 0.006 | [20] 0.013

IDH3G (UniProt P51553)
inactive: [1] 0.027 | [2] 0.032 | [3] 0.07 | [4] -0.034 | [5] 0.069 | [6] -0.043 | [7] -0.016 | [8] -0.003 | [9] -0.033 | [10] 0.094 | [11] -0.024 | [12] 0.015 | [13] 0.026 | [14] 0 | [15] -0.012 | [16] -0.015 | [17] 0.006 | [18] 0.042 | [19] -0.003 | [20] 0.106

IMP3 (UniProt Q9NV31)
inactive: [1] 0.139 | [2] 0.217 | [3] 0.012 | [4] 0.019 | [5] 0.246 | [6] 0.238 | [7] -0.288 | [8] -0.135 | [9] 0.008 | [10] -0.028 | [11] -0.063 | [12] 0.024 | [13] 0.054 | [14] -0.063 | [15] 0.604 | [16] 0.045 | [17] 0.053 | [18] 0.045 | [19] 0.211 | [20] 0.168

ITM2A (UniProt O43736)
inactive: [1] 0.033 | [2] -0.019 | [3] -0.11 | [4] 0.11 | [5] 0.069 | [6] 0.071 | [7] 0.025 | [8] -0.034 | [9] 0.03 | [10] 0.069 | [11] -0.077 | [12] 0.019 | [13] 0.065 | [14] -0.01 | [15] 0.129 | [16] 0.11 | [17] -0.109 | [18] -0.118 | [19] 0.077 | [20] -0.066

IMPAD1 (UniProt Q9NX62)
inactive: [1] 0.017 | [2] -0.057 | [3] 0.014 | [4] -0.005 | [5] 0.081 | [6] 0.045 | [7] -0.017 | [8] -0.093 | [9] 0 | [10] -0.046 | [11] 0.009 | [12] -0.029 | [13] -0.018 | [14] -0.037 | [15] 0.016 | [16] -0.006 | [17] 0.017 | [18] -0.11 | [19] 0.013 | [20] -0.016

ITGAV (UniProt P06756)
inactive: [1] 0.022 | [2] -0.025 | [3] 0.19 | [4] -0.016 | [5] 0.04 | [6] 0.04 | [7] -0.038 | [8] -0.041 | [9] 0.053 | [10] -0.014 | [11] -0.052 | [12] 0 | [13] -0.016 | [14] -0.006 | [15] 0.016 | [16] 0 | [17] 0.028 | [18] 0.032 | [19] 0.057 | [20] 0.05

IGF2BP3 (UniProt O00425)
inactive: [1] 0.003 | [2] -0.082 | [3] -0.413 | [4] 0.41 | [5] -0.103 | [6] 0.129 | [7] 0.108 | [8] 0.155 | [9] 0.239 | [10] -0.298 | [11] 0.232 | [12] -0.016 | [13] 0.037 | [14] -0.239 | [15] 0.028 | [16] -0.04 | [17] -0.285 | [18] -0.239 | [19] -0.028 | [20] -0.252

Source: the supplement of paper PMC10849652
